# Experimental data: patent US20170151221A1, “PHARMACEUTICAL COMPOSITIONS COMPRISING CEFEPIME OR SULBACTAM” (priority 2014, published 2017)
# At least one compound was matched to its structure with a doubt left.
# Key:
# [1] = test system: Acinetobacter baumannii NCTC 13302 producing carbapenemase hydrolyzing OXA 25 enzyme; assay: Time kill study; assay type: cell-based; conditions: cefepime, sulbactam, imipenem at 8 mcg/ml; compound of Formula (I) at 4 mcg/ml; alone or in combination; 8 hours
# Description: (§1) The synergistic killing effect of the combinations according to invention was studied by performing typical time kill studies. Typically, freshly grown cultures were diluted to the required cell density (initial starting inoculum) in Cation adjusted Muller Hinton broth medium (BD, USA). The antibacterial agents at the required concentrations were added into the culture-containing medium either alone or in combination. The samples were incubated under shaking condition (120 rpm) at 37° C. Enumeration of viable bacterial count was undertaken, every 2 hour, by diluting in normal saline and plating on to the Tryptic Soya Agar plates (BD, USA). The plates were incubated for 24 hours to arrive at the viable bacterial count. […] The decrease of 1 Log CFU/ml, after administration of combination of present invention, in comparison to initial bacterial count corresponds to 90% killing of bacteria. Similarly, 2 Log CFU/ml reductions corresponds to 99% killing of bacteria and 3 Log CFU/ml reductions is equal to 99.9% killing of bacteria.
# (§2) The assay without any antibacterial agent was taken as control.
# [2] = test system: Acinetobacter baumannii NCTC 13301 producing Carbapenemase hydrolyzing OXA 23 enzyme; assay: Time kill study; assay type: cell-based; conditions: cefepime, sulbactam, imipenem at 8 mcg/ml; compound of Formula (I) at 4 mcg/ml; alone or in combination; 8 hours
# Description: as §1, §2
compound,measurement,setting,value
C[C@@H](O)[C@H]1C(=O)N2C(C(=O)O)=C(SCCN=CN)C[C@H]12 [Imipenem],Effect on bacterial count throughout the duration of the study (in words),[1],not effective to decrease the bacterial count
same,Effect on bacterial count throughout the duration of the study (in words),[2],not effective to decrease the bacterial count
